The record followed here is PMC5696377.

Chains of the proteins cited; added tags and fusions are not shown. Lines headed by an entry give the natural chain unless they say otherwise; changes in a name come on top.
UniProt O15111: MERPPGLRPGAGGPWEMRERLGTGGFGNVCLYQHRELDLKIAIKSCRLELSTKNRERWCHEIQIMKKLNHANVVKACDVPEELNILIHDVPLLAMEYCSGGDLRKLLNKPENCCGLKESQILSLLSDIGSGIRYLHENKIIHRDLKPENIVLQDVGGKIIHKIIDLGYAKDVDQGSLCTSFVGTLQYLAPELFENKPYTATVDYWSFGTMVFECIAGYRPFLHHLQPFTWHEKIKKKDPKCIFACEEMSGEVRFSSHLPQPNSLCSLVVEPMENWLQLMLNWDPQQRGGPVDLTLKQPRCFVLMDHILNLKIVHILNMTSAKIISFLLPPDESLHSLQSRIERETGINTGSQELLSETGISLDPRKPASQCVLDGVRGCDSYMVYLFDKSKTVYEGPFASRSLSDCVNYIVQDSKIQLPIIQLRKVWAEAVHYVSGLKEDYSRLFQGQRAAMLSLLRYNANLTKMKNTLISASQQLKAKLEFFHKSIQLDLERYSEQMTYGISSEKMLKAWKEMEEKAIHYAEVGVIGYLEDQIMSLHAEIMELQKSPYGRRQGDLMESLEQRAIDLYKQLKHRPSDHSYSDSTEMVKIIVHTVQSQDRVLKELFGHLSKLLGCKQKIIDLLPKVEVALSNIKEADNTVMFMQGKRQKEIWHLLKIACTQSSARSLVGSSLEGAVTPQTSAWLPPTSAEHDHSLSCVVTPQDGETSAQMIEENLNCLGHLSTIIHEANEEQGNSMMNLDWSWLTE
UniProt Q9Y6K9: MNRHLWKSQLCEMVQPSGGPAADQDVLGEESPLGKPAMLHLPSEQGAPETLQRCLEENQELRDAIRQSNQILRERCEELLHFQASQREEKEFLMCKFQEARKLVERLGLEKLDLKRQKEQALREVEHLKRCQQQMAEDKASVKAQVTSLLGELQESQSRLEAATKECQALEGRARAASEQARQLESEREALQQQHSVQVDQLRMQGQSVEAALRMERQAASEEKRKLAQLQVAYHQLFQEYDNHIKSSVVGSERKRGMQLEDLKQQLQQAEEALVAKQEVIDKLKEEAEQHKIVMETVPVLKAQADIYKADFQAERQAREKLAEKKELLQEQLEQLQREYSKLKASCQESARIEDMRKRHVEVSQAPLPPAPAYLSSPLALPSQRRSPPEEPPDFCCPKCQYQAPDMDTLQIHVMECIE
UniProt Q60680: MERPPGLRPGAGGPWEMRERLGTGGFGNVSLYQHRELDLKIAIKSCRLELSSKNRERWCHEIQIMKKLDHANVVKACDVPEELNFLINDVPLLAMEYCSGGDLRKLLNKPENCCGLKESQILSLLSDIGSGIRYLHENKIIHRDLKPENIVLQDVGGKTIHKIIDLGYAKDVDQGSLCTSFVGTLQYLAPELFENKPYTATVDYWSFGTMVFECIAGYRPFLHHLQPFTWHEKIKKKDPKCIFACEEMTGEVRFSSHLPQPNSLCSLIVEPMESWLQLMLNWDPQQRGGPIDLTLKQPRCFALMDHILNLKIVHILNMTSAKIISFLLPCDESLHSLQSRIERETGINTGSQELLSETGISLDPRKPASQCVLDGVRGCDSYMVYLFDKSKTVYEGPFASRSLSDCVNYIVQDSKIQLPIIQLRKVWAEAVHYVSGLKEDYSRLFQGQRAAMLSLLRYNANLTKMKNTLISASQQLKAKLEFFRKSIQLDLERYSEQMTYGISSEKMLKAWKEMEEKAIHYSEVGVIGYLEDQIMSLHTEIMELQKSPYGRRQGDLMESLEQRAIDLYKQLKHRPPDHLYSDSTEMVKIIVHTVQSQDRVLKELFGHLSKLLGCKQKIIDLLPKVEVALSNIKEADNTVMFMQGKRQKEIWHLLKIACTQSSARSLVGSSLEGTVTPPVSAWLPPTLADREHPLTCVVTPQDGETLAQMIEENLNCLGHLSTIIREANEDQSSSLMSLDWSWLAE
UniProt Q9Z1E3: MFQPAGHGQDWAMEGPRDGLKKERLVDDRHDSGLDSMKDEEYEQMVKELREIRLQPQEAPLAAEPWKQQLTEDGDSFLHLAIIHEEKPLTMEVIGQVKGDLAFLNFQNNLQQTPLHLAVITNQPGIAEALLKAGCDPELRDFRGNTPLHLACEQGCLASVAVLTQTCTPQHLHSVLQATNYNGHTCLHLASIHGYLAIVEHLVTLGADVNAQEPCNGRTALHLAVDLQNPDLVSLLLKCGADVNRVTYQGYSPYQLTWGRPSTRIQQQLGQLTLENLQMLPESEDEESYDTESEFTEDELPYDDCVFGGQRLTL
UniProt P25963: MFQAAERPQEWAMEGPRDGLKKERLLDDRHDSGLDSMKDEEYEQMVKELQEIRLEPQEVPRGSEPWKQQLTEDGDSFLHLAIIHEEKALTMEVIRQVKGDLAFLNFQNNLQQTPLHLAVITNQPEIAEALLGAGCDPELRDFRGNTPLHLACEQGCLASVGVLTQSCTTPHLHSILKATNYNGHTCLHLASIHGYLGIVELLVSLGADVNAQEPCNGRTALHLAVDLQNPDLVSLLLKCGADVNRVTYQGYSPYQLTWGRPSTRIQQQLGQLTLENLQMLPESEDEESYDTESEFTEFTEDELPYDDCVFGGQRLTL

These are yes or no findings as the source states them, for the method shown. Binding seen in cells or lysates may run through a third protein. Some entries that bind do so weakly or less than the wild type.

Assay [1] addresses T1, Morgana/chp-1 (CHORDC1 gene product) (human (endogenous in MDA-MB-231, BT549)) (UniProt Q9UHD1).
T1 sequence: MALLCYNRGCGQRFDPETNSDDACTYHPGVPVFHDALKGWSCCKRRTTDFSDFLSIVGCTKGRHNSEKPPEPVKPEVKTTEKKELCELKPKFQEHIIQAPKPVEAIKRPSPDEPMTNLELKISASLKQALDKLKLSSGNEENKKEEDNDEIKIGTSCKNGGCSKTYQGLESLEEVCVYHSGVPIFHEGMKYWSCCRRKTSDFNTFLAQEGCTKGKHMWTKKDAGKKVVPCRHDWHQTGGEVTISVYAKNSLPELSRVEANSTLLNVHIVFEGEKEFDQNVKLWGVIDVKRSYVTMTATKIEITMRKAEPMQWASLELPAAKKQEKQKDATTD
The assay is described as follows: co-IP; immunoprecipitation from the non-tumorigenic cell lines HEK293 and NIH-3T3 (Supplementary Fig. 6a, b).

For assay [2], the target named is T2, Morgana (NIH-3T3) (mouse (endogenous in NIH-3T3)) (UniProt Q9D1P4).
T2 sequence: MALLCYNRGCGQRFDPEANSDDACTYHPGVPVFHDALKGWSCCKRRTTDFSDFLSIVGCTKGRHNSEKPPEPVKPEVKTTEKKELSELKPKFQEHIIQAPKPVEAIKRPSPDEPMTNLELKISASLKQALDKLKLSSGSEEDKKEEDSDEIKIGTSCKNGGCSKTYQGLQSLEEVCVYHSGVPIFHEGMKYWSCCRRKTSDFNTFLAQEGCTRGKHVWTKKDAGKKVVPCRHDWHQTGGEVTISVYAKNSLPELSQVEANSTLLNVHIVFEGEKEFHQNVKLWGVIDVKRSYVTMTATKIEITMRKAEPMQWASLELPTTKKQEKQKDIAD
Described as above.

Assay [3] concerns the target T1, Morgana/chp-1 (CHORDC1 gene product) (human (endogenous in MDA-MB-231, BT549)). The assay is described as follows: co-IP; immunoprecipitation of Morgana from MDA-MB-231 or BT549 extracts (lysis buffer 25 mM Tris-HCl pH 8, 1 mM MgCl2), antibody overnight at 4 °C, protein G Sepharose, 10 washes, immunoblot; also done in MDA-MB-231 silenced for Hsp90 or cdc37.

With “IKK complex (HEK293) (from UniProt O15111 1-745; O14920 1-756; Q9Y6K9 1-419)”, the binding result in assay [1] was “binds”.
As for “IKK complex (NIH-3T3) (from UniProt Q60680 1-745; O88351 1-757; O88522 1-412)”, the binding entry in assay [2] was “binds”.
Regarding IKKγ/NEMO (from UniProt Q9Y6K9 1-419), in assay [3], the binding result was “binds”.
For “IκBα (NIH-3T3) (from UniProt Q9Z1E3 1-314)”, the binding result in assay [2] is on record as “binds”.
IκBα (from UniProt P25963 1-317): the binding result in assay [1] and in assay [3] was “binds” throughout.
